Reference: the supplement of paper PMC4604168 (melanoma cell lines)
The list shows a part of the results. Many values rest on one well or one pass, so single values are uncertain.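 The apoptosis fraction was the count of cleaved-PARP antibody-stained nuclei relative to all DNA-stained nuclei, imaged in 1,536-well plates. Screening doses were set so most cells survived, and baseline and induced cleaved-PARP levels vary greatly across cell lines.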

Columns and labels:
Assay in all cases: cleaved PARP positive nuclei fraction relative to DMSO control; melanoma cells; higher = more apoptosis
Settings in all cases: library dose: low library concentration; 72 h
WM115 = tested on: WM115
WM1716 = tested on: WM1716
WM1745 = tested on: WM1745
WM3526 = tested on: WM3526
WM3619 = tested on: WM3619
WM451Lu = tested on: WM451Lu

Structure (SMILES) | cleaved PARP positive nuclei fraction (WM115) [%] | cleaved PARP positive nuclei fraction (WM1716) [%] | cleaved PARP positive nuclei fraction (WM1745) [%] | cleaved PARP positive nuclei fraction (WM3526) [%] | cleaved PARP positive nuclei fraction (WM3619) [%] | cleaved PARP positive nuclei fraction (WM451Lu) [%]
Cn1c(Nc2ccc(C(F)(F)F)cc2)nc2cc(Oc3ccnc(-c4ncc(C(F)(F)F)[nH]4)c3)ccc21 + Oc1cc(-c2nc(-c3ccccc3)[nH]c2-c2ccncc2)ccc1Cl [L779450] (first compound 0.08 µM, partner dose 0.2 µM) | 278 | 135 | 198 | 162 | 134 | 242
Cc1nc(Nc2ncc(C(=O)Nc3c(C)cccc3Cl)s2)cc(N2CCN(CCO)CC2)n1 [dasatanib] + NC(=O)Nc1cc(-c2cccc(F)c2)sc1C(=O)N[C@H]1CCCNC1 [AZD7762] (first compound 0.004 µM, partner dose 0.02 µM) | 277 | 139 | 121 | 68.7 | 87.4 | 584
Cc1cc(N2CCOCC2)cc2[nH]c(-c3c(NC[C@@H](O)c4cccc(Cl)c4)cc[nH]c3=O)nc12 + COc1ccc(COc2ccc(Cc3cnc(N)nc3N)cc2OC)cc1 [GW2580] (first compound 0.2 µM, partner dose 1 µM) | 48.3 | 98 | 117 | 119 | 86.5 | 195
CO[C@@H]1[C@H](N(C)C(=O)c2ccccc2)C[C@H]2O[C@]1(C)n1c3ccccc3c3c4c(c5c6ccccc6n2c5c31)C(=O)NC4 [Midostaurin] + COC(=O)c1sccc1S(=O)(=O)Nc1ccc(Nc2ccccc2)cc1OC [GSK0660] (first compound 0.08 µM, partner dose 1 µM) | 296 | 43.6 | 110 | 77.7 | 118 | 94.7
COCC[n+]1c2c(n(Cc3cnccn3)c1C)C(=O)c1ccccc1C2=O + Cn1cncc1[C@@](N)(c1ccc(Cl)cc1)c1ccc2c(c1)c(-c1cccc(Cl)c1)cc(=O)n2C [tipifarnib] (first compound 0.0004 µM, partner dose 0.01 µM) | 97.4 | 72.5 | 88.8 | 156 | 97.4 | 38.2
CC(C)(C)c1cnc(CSc2cnc(NC(=O)C3CCNCC3)s2)o1 + O=c1cc(-c2cccc3c2Sc2ccccc2S3)oc(N2CCOCC2)c1 [KU55933] (first compound 0.01 µM, partner dose 1 µM) | 77.3 | 151 | 99.9 | 75 | 166 | 181
NC(=O)Nc1cc(-c2cccc(F)c2)sc1C(=O)N[C@H]1CCCNC1 + Cc1cc(N2CCOCC2)cc2[nH]c(-c3c(NC[C@@H](O)c4cccc(Cl)c4)cc[nH]c3=O)nc12 [BMS536924] (first compound 0.02 µM, partner dose 0.2 µM) | 161 | 240 | 127 | 285 | 135 | 68.4
O=C(Nc1cccc(Cl)c1)Nc1ncc(CCNc2ncnc3ccsc23)s1 + COC(=O)c1sccc1S(=O)(=O)Nc1ccc(Nc2ccccc2)cc1OC [GSK0660] (first compound 0.0008 µM, partner dose 1 µM) | 84 | 95.1 | 103 | 70.6 | 87.1 | 64.6
COc1cc(Nc2ncc(F)c(Nc3ccc4c(n3)NC(=O)C(C)(C)O4)n2)cc(OC)c1OC [Tamatinib] + COC(=O)c1sccc1S(=O)(=O)Nc1ccc(Nc2ccccc2)cc1OC [GSK0660] (first compound 0.4 µM, partner dose 1 µM) | 38.6 | 118 | 146 | 66.5 | 86.7 | 65.8
Cn1nnc2c(C(N)=O)ncn2c1=O [temozolomide] + CO[C@@H]1[C@H](N(C)C(=O)c2ccccc2)C[C@H]2O[C@]1(C)n1c3ccccc3c3c4c(c5c6ccccc6n2c5c31)C(=O)NC4 [Midostaurin] (first compound 2 µM, partner dose 0.08 µM) | 107 | 122 | 88.3 | 68.3 | 110 | 63.5
Clc1ccc(Nc2nnc(Cc3ccncc3)c3ccccc23)cc1 [vatalanib] + Nc1cccc2c1CN(C1CCC(=O)NC1=O)C2=O [lenalidomide] (first compound 2 µM, partner dose 1 µM) | 118 | 153 | 82.5 | 108 | 85.2 | 108
C=CCn1c(=O)c2cnc(Nc3ccc(N4CCN(C)CC4)cc3)nc2n1-c1cccc(C(C)(C)O)n1 + OCCn1cc(-c2cnc3nnn(Cc4ccc5ncccc5c4)c3n2)cn1 [PF04217903] (first compound 0.02 µM, partner dose 1 µM) | 44.4 | 116 | 133 | 126 | 102 | 71.4
C=CCn1c(=O)c2cnc(Nc3ccc(N4CCN(C)CC4)cc3)nc2n1-c1cccc(C(C)(C)O)n1 + CCCCCCCCCCCC1=C(O)C(=O)C=C(O)C1=O [Embelin] (first compound 0.02 µM, partner dose 1.2 µM) | 89.5 | 192 | 136 | 68.4 | 105 | 74.2
C[C@@H]1CCN(C(=O)CC#N)C[C@@H]1N(C)c1ncnc2[nH]ccc12 + Oc1cc(-c2nc(-c3ccccc3)[nH]c2-c2ccncc2)ccc1Cl [L779450] (first compound 1 µM, partner dose 0.2 µM) | 160 | 198 | 112 | 98 | 77.5 | 161
CC(=O)c1c(C)c2cnc(Nc3ccc(N4CCNCC4)cn3)nc2n(C2CCCC2)c1=O [palbociclib] + CN(NC(=O)CC(=O)NN(C)C(=S)c1ccccc1)C(=S)c1ccccc1 [STA4783] (first compound 0.04 µM, partner dose 0.006 µM) | 170 | 225 | 421 | 93.9 | 639 | 121
O=C(CCCCCCC(=O)Nc1ccccc1)NO [vorinostat] + NCC(=O)Nc1ccc(-n2nc(C(F)(F)F)cc2-c2ccc3c(ccc4ccccc43)c2)cc1 [OSU03012] (first compound 0.08 µM, partner dose 1 µM) | 203 | 106 | 86.9 | 257 | 155 | 80.1
CC(C)(C)c1cnc(CSc2cnc(NC(=O)C3CCNCC3)s2)o1 + COc1cc2ncnc(Nc3ccc(Oc4ccccc4)cc3)c2cc1OC [SrcI1] (first compound 0.01 µM, partner dose 2 µM) | 64.9 | 25 | 110 | 74.5 | 270 | 152
C[C@@H]1CCN(C(=O)CC#N)C[C@@H]1N(C)c1ncnc2[nH]ccc12 + CC(C)CCN1c2nc(Nc3cc(F)c(O)c(F)c3)ncc2N(C)C(=O)C1C [BID1870] (first compound 1 µM, partner dose 0.2 µM) | 84.7 | 68.8 | 107 | 36.4 | 83.5 | 30.4
OCCn1cc(-c2cnc3nnn(Cc4ccc5ncccc5c4)c3n2)cn1 + COc1ccc(-c2ccc3c(N4CCOCC4)nc(N4C[C@@H](C)O[C@@H](C)C4)nc3n2)cc1CO [KU0063794] (first compound 1 µM, partner dose 0.02 µM) | 272 | 170 | 313 | 276 | 247 | 88.4
O=C(Nc1cccc(Cl)c1)Nc1ncc(CCNc2ncnc3ccsc23)s1 + COc1ccc(COc2ccc(Cc3cnc(N)nc3N)cc2OC)cc1 [GW2580] (first compound 0.0008 µM, partner dose 1 µM) | 88.7 | 138 | 112 | 73.5 | 84.4 | 61.6
Nc1cccc2c1CN(C1CCC(=O)NC1=O)C2=O (stereo not given) [lenalidomide] + CC(C)CCN1c2nc(Nc3cc(F)c(O)c(F)c3)ncc2N(C)C(=O)C1C [BID1870] (first compound 1 µM, partner dose 0.2 µM) | 140 | 110 | 94 | 86.3 | 74.4 | 60.1
OCCn1cc(-c2cnc3nnn(Cc4ccc5ncccc5c4)c3n2)cn1 + COc1ccc2c(c1)CCC1C2CCC2(C)C(NCCCCCCN3C(=O)C=CC3=O)CCC12 [U73122] (first compound 1 µM, partner dose 0.4 µM) | 80.1 | 111 | 102 | 31.6 | 152 | 202
COc1cc(Nc2ncc(F)c(Nc3ccc4c(n3)NC(=O)C(C)(C)O4)n2)cc(OC)c1OC [Tamatinib] + OCCn1cc(-c2cnc3nnn(Cc4ccc5ncccc5c4)c3n2)cn1 [PF04217903] (first compound 0.4 µM, partner dose 1 µM) | 129 | 216 | 104 | 31.9 | 108 | 206
O=C(Nc1cccc(Cl)c1)Nc1ncc(CCNc2ncnc3ccsc23)s1 + Oc1cc(-c2nc(-c3ccccc3)[nH]c2-c2ccncc2)ccc1Cl [L779450] (first compound 0.0008 µM, partner dose 0.2 µM) | 146 | 54.4 | 112 | 52.1 | 186 | 74.4
CO[C@@H]1[C@H](N(C)C(=O)c2ccccc2)C[C@H]2O[C@]1(C)n1c3ccccc3c3c4c(c5c6ccccc6n2c5c31)C(=O)NC4 [Midostaurin] + C[C@@H]1CCN(C(=O)CC#N)C[C@@H]1N(C)c1ncnc2[nH]ccc12 [CP690550] (first compound 0.08 µM, partner dose 1 µM) | 130 | 115 | 113 | 122 | 129 | 131

A run of entries from further up, for reference:
Structure (SMILES) | cleaved PARP positive nuclei fraction (WM115) [%] | cleaved PARP positive nuclei fraction (WM1716) [%] | cleaved PARP positive nuclei fraction (WM1745) [%] | cleaved PARP positive nuclei fraction (WM3526) [%] | cleaved PARP positive nuclei fraction (WM3619) [%] | cleaved PARP positive nuclei fraction (WM451Lu) [%]
Nc1cccc2c1CN(C1CCC(=O)NC1=O)C2=O (stereo not given) [lenalidomide] + CC(C)CCN1c2nc(Nc3cc(F)c(O)c(F)c3)ncc2N(C)C(=O)C1C [BID1870] (first compound 1 µM, partner dose 0.2 µM) | 140 | 110 | 94 | 86.3 | 74.4 | 60.1
OCCn1cc(-c2cnc3nnn(Cc4ccc5ncccc5c4)c3n2)cn1 + COc1ccc2c(c1)CCC1C2CCC2(C)C(NCCCCCCN3C(=O)C=CC3=O)CCC12 [U73122] (first compound 1 µM, partner dose 0.4 µM) | 80.1 | 111 | 102 | 31.6 | 152 | 202
